# Results reported in the supplement of paper PMC8728848.
# The list shows a part of the results.
# B1: C-Reactive Protein (Homo sapiens), P02741 (protein)
# chain: MEKLLCFLVLTSLSHAFGQTDMSRKAFVFPKESDTSYVSLKAPLTKPLKAFTVCLHFYTELSSTRGYSIFSYATKRQDNEILIFWSKDIGYSFTVGGSEILFEVPEVTVAPVHICTSWESASGIVEFWVDGKPRVRKSLKKGYTVGAEASIILGQEQDSFGGNFEGSQSLVGDIGNVNMWDFVLSPDEINTIYLGGPFSPNVLNWRALKYEVQGEVFTKPQLWP
# Legend:
# Assay in all cases: glycan array binding signal (z-score within array); higher = stronger binding
# Settings in all cases: glycan notation: IUPAC condensed, linker removed
# Fuc(a1-2)Gal = target: Fuc(a1-2)Gal
# Summary of the method: (§1)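 Negative Z-scores can be read as non-binding. The Z-score is calculated within each array and then averaged across arrays of one protein sequence at different concentrations or buffers and across linkers. Arrays, 3228 in all, were curated from the Consortium for Functional Glycomics database and kept only where the protein sequence was available.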
# Fuc(a1-2)Gal(b1-3)GalNAc = target: Fuc(a1-2)Gal(b1-3)GalNAc
# Summary of the method: as §1
# [1] = target: Fuc(a1-2)Gal(b1-3)GalNAc(b1-3)Gal
# Summary of the method: as §1
# [2] = target: Fuc(a1-2)Gal(b1-3)GalNAc(b1-3)Gal(a1-4)Gal(b1-4)Glc
# Summary of the method: as §1
# [3] = target: Fuc(a1-2)Gal(b1-3)GalNAc(b1-3)Gal(b1-4)Glc
# Summary of the method: as §1
# [4] = target: Fuc(a1-2)Gal(b1-3)GalNAc(b1-4)[Neu5Ac(a2-3)]Gal(b1-4)Glc
# Summary of the method: as §1
# [5] = target: Fuc(a1-2)Gal(b1-3)[Fuc(a1-4)]GlcNAc
# Summary of the method: as §1
# Fuc(a1-2)Gal(b1-4)Glc = target: Fuc(a1-2)Gal(b1-4)Glc
# Summary of the method: as §1
# Fuc(a1-2)Gal(b1-4)Glc6S = target: Fuc(a1-2)Gal(b1-4)Glc6S
# Summary of the method: as §1
# Fuc(a1-2)Gal(b1-4)GlcNAc = target: Fuc(a1-2)Gal(b1-4)GlcNAc
# Summary of the method: as §1
# [6] = target: Fuc(a1-2)Gal(b1-4)GlcNAc(b1-3)Gal(b1-4)GlcNAc
# Summary of the method: as §1
# [7] = target: Fuc(a1-2)Gal(b1-4)GlcNAc(b1-3)Gal(b1-4)GlcNAc(b1-3)Gal(b1-4)GlcNAc
# Summary of the method: as §1
# [8] = target: Fuc(a1-2)Gal(b1-4)GlcNAc6S
# Summary of the method: as §1
# [9] = target: Fuc(a1-2)Gal(b1-4)[Fuc(a1-3)]GalNAc(b1-3)Gal(b1-4)[Fuc(a1-3)]GlcNAc
# Summary of the method: as §1
# [10] = target: Fuc(a1-2)Gal(b1-4)[Fuc(a1-3)]GalNAc(b1-3)Gal(b1-4)[Fuc(a1-3)]GlcNAc(b1-3)Gal(b1-4)[Fuc(a1-3)]GalNAc
# Summary of the method: as §1
# [11] = target: Fuc(a1-2)Gal(b1-4)[Fuc(a1-3)]GlcNAc
# Summary of the method: as §1
# Fuc(a1-2)Gal6S(b1-4)Glc = target: Fuc(a1-2)Gal6S(b1-4)Glc
# Summary of the method: as §1
# [12] = target: Fuc(a1-2)Gal6S(b1-4)Glc6S
# Summary of the method: as §1
# [13] = target: Fuc(a1-2)Gal6S(b1-4)GlcNAc
# Summary of the method: as §1
# Fuc(a1-2)GlcNAc = target: Fuc(a1-2)GlcNAc
# Summary of the method: as §1
# Fuc(a1-2)[Gal(a1-3)]Gal = target: Fuc(a1-2)[Gal(a1-3)]Gal
# Summary of the method: as §1
# [14] = target: Fuc(a1-2)[Gal(a1-3)]Gal(b1-3)GlcNAc
# Summary of the method: as §1
# [15] = target: Fuc(a1-2)[Gal(a1-3)]Gal(b1-4)Glc
# Summary of the method: as §1
# [16] = target: Fuc(a1-2)[Gal(a1-3)]Gal(b1-4)GlcNAc
# Summary of the method: as §1
# [17] = target: Fuc(a1-2)[Gal(a1-3)]Gal(b1-4)[Fuc(a1-3)]GlcNAc
# Summary of the method: as §1
# [18] = target: Fuc(a1-2)[Gal(a1-4)]Gal(b1-4)GalNAc
# Summary of the method: as §1
# [19] = target: Fuc(a1-2)[GalNAc(a1-3)]Gal
# Summary of the method: as §1
# [20] = target: Fuc(a1-2)[GalNAc(a1-3)]Gal(b1-3)GlcNAc
# Summary of the method: as §1
# [21] = target: Fuc(a1-2)[GalNAc(a1-3)]Gal(b1-4)Glc
# Summary of the method: as §1
# [22] = target: Fuc(a1-2)[GalNAc(a1-3)]Gal(b1-4)GlcNAc
# Summary of the method: as §1
# [23] = target: Fuc(a1-2)[GalNAc(a1-3)]Gal(b1-4)[Fuc(a1-3)]GlcNAc
# Summary of the method: as §1
# [24] = target: Fuc(a1-2)[GalNAc(a1-4)]Gal(b1-4)GlcNAc
# Summary of the method: as §1
# Fuc(a1-3)GlcNAc = target: Fuc(a1-3)GlcNAc
# Summary of the method: as §1
# [25] = target: Fuc(a1-3)[Gal(b1-4)]Glc6S
# Summary of the method: as §1
# [26] = target: Fuc(a1-3)[Gal(b1-4)]GlcNAc
# Summary of the method: as §1
# [27] = target: Fuc(a1-3)[Gal(b1-4)]GlcNAc(b1-3)Gal(b1-3)[Fuc(a1-4)]GlcNAc
# Summary of the method: as §1
# [28] = target: Fuc(a1-3)[Gal(b1-4)]GlcNAc(b1-4)Gal(b1-4)[Fuc(a1-3)]GlcNAc
# Summary of the method: as §1
# [29] = target: Fuc(a1-3)[Gal(b1-4)]GlcNAc(b1-4)Gal(b1-4)[Fuc(a1-3)]GlcNAc(b1-4)Gal(b1-4)[Fuc(a1-3)]GlcNAc
# Summary of the method: as §1
# [30] = target: Fuc(a1-3)[Gal(b1-4)]GlcNAc6S
# Summary of the method: as §1
# [31] = target: Fuc(a1-3)[Gal3S(b1-4)]Glc
# Summary of the method: as §1
# [32] = target: Fuc(a1-3)[Gal3S(b1-4)]Glc6S
# Summary of the method: as §1
# [33] = target: Fuc(a1-3)[Gal3S(b1-4)]GlcNAc
# Summary of the method: as §1
# [34] = target: Fuc(a1-3)[Gal3S(b1-4)]GlcNAc6S
# Summary of the method: as §1
# [35] = target: Fuc(a1-3)[GalNAc(b1-4)]Gal(b1-4)GlcNAc
# Summary of the method: as §1
# Fuc(a1-4)GlcNAc = target: Fuc(a1-4)GlcNAc
# Summary of the method: as §1
binder,measurement,setting,value
B1,glycan array binding signal (z-score),Fuc(a1-2)Gal,0.139
same,glycan array binding signal (z-score),Fuc(a1-2)Gal(b1-3)GalNAc,-0.571
same,glycan array binding signal (z-score),[1],-0.638
same,glycan array binding signal (z-score),[2],-0.492
same,glycan array binding signal (z-score),[3],-0.059
same,glycan array binding signal (z-score),[4],-0.235
same,glycan array binding signal (z-score),[5],-0.56
same,glycan array binding signal (z-score),Fuc(a1-2)Gal(b1-4)Glc,-0.518
same,glycan array binding signal (z-score),Fuc(a1-2)Gal(b1-4)Glc6S,0.027
same,glycan array binding signal (z-score),Fuc(a1-2)Gal(b1-4)GlcNAc,-0.488
same,glycan array binding signal (z-score),[6],-0.743
same,glycan array binding signal (z-score),[7],-0.049
same,glycan array binding signal (z-score),[8],1.17
same,glycan array binding signal (z-score),[9],-0.458
same,glycan array binding signal (z-score),[10],-0.266
same,glycan array binding signal (z-score),[11],-0.159
same,glycan array binding signal (z-score),Fuc(a1-2)Gal6S(b1-4)Glc,1.25
same,glycan array binding signal (z-score),[12],0.157
same,glycan array binding signal (z-score),[13],-0.564
same,glycan array binding signal (z-score),Fuc(a1-2)GlcNAc,0.53
same,glycan array binding signal (z-score),Fuc(a1-2)[Gal(a1-3)]Gal,-0.584
same,glycan array binding signal (z-score),[14],-0.507
same,glycan array binding signal (z-score),[15],-0.462
same,glycan array binding signal (z-score),[16],-0.639
same,glycan array binding signal (z-score),[17],-0.585
same,glycan array binding signal (z-score),[18],-0.505
same,glycan array binding signal (z-score),[19],-0.649
same,glycan array binding signal (z-score),[20],-0.35
same,glycan array binding signal (z-score),[21],-0.542
same,glycan array binding signal (z-score),[22],-0.489
same,glycan array binding signal (z-score),[23],-0.576
same,glycan array binding signal (z-score),[24],-0.792
same,glycan array binding signal (z-score),Fuc(a1-3)GlcNAc,-0.496
same,glycan array binding signal (z-score),[25],1.22
same,glycan array binding signal (z-score),[26],-0.622
same,glycan array binding signal (z-score),[27],-0.037
same,glycan array binding signal (z-score),[28],0.041
same,glycan array binding signal (z-score),[29],-0.517
same,glycan array binding signal (z-score),[30],1.01
same,glycan array binding signal (z-score),[31],0.735
same,glycan array binding signal (z-score),[32],0.393
same,glycan array binding signal (z-score),[33],0.356
same,glycan array binding signal (z-score),[34],0.1
same,glycan array binding signal (z-score),[35],-0.478
same,glycan array binding signal (z-score),Fuc(a1-4)GlcNAc,-0.262
